Source: patent publication US20200290989A1, “CALIXCROWNS AND USES THEREOF” (INNOPHARMASCREEN INC., priority 2019, published 2020)

Test system: STING / c-di-GMP
Experiment: Protein-nucleotide interaction assay for STING and c-di-GMP binding using IPS-Linker-coated chip

## O=C(O)COc1c2cccc1Cc1cccc3c1OCCOCCOCCOCCOc1c(cccc1C2)CC1=CC=CC(C3)C1OCC(=O)O (centres unmarked) [IPS-Linker]
2′[DY-547]-AHC-c-di GMP ligand (FIG. 5)
  lowest c-di-GMP concentration at which interaction detected: 3.9 µM
His-tagged STING captured by His×6 antibody (FIG. 5)
  lowest STING protein concentration at which interaction detected: 5 µM
